Results published in the supplement of paper PMC12889115.
The other results are listed elsewhere or left out. Values are raw readings; no control value is given beside them.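 In the initial screen, polymyxin B was used at a concentration that permeabilizes Salmonella's outer membrane but not its inner membrane. Maximum growth was set by DMSO wells with or without polymyxin B. Since plates varied, data were ranked per plate, and compounds giving the lowest OD600 advanced as hits.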

System: Salmonella enterica serovar Typhimurium SL1344
Assay: bacterial growth OD600 after 18 h with compound and polymyxin B; higher = more bacterial growth (less inhibition)
Details: 50 µM, Mueller-Hinton broth

Row | Compound | bacterial growth OD600 (polymyxin B 1 µg/mL) | bacterial growth OD600 (polymyxin B 0.75 µg/mL)
1 | O=C(c1ccccc1)N1CCC2(CCCN(Cc3ccc(F)cc3)C2=O)C1 (stereo unspecified) | 1.04 | 
2 | COc1cccc(CC2CN(Cc3cccn3-c3nccs3)CCO2)c1 (stereo unspecified) |  | 0.723
3 | CCN(CC1CCCN(CCc2cccc(F)c2)C1)C(=O)CC(C)C (stereo unspecified) | 0.994 | 
4 | COc1ccc2c(c1)OC(C)CN(Cc1ccc3cccnc3c1)C2 (stereo unspecified) |  | 0.827
5 | CC1CCN(Cc2nnnn2CC(=O)N2CCCC(C(=O)c3cccnc3)C2)CC1 (stereo unspecified) | 0.962 | 
6 | CCOC(=O)CC1COCCN1Cc1nc(-c2ccc(C(=O)OC)cc2)oc1C (stereo unspecified) | 0.915 | 
7 | O=C(Nc1ccc2c(c1)CN(C(=O)C#Cc1ccccc1)CC2)c1ccccn1 | 1.2 | 
8 | O=C(CCc1ccccc1)Nc1ccc(N2CCC(NCc3cccc(-n4cccn4)c3)CC2)cc1 |  | 0.776
9 | CCCN(CC1CCCO1)C(=O)C1CCN(c2nc(C)c3ccc(S(C)(=O)=O)cc3n2)CC1 (stereo unspecified) |  | 0.779
10 | Cc1ccccc1CCN1CCC(CN(C(=O)c2snnc2C)C2CCCC2)CC1 | 0.757 | 
11 | CCOC(=O)C1(CCOc2ccccc2)CCCN(C(=O)CCc2c(C)noc2C)C1 (stereo unspecified) | 0.768 | 
12 | COC(=O)CCCC(=O)N1CCCC(N(C)Cc2ccccc2)C1 (stereo unspecified) | 0.971 | 
13 | CN(Cc1ccccc1)C(=O)c1csc2nc(-c3cccc(F)c3)cn12 |  | 0.005
14 | O=C(c1cccs1)C1CCCN(Cc2nc(Cc3ccccc3F)no2)C1 (stereo unspecified) | 0.907 | 
15 | COC(=O)CCCC(=O)N1CCCC(Nc2ccc(F)c(F)c2)C1 (stereo unspecified) | 0.89 | 
16 | CN(C)C1(C(=O)NCc2c(F)cccc2Cl)Cc2ccccc2C1 | 1.23 | 
17 | CSc1ccc(CNC(C)c2cnc(-c3ccncc3)nc2C)cc1 (stereo unspecified) | 0.864 | 
18 | Cc1cccc(C)c1Oc1ncccc1CNC(=O)Cc1ccccn1 | 1.02 | 
19 | Cc1cnc(C)c(N2CCC(C3CCN(Cc4cccnc4)CC3)C2)n1 (stereo unspecified) |  | 0.934
20 | Cc1cc2c(c(-c3cnccn3)c1)OC(CNC(=O)/C=C/c1cccs1)C2 (stereo unspecified) |  | 0.007
21 | CC1(C)CC(NC(=O)c2coc(COc3ccccc3)n2)CCO1 (stereo unspecified) | 0.926 | 

2 compounds picked at random from those above:
Row | Compound | bacterial growth OD600 (polymyxin B 1 µg/mL) | bacterial growth OD600 (polymyxin B 0.75 µg/mL)
19 | Cc1cnc(C)c(N2CCC(C3CCN(Cc4cccnc4)CC3)C2)n1 (stereo unspecified) |  | 0.934
18 | Cc1cccc(C)c1Oc1ncccc1CNC(=O)Cc1ccccn1 | 1.02 | 
